Values from PubChem BioAssay AID1259308 (NCATS, 2017).

Aim: 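Genes whose loss raises luciferase production in HEK293 cells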 (primary screen)
Cells: human HEK293 embryonic kidney cells stably expressing firefly luciferase (HEK-CMV-Luc2-Hygro)
Knock-down reagent: single siRNA against human genes, 0.8 pmol siRNA per well
Time to read-out: 72 h
Measurement: 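Luciferase light (ONE-Glo) measured on one replicate plate set and viability (CellTiter-Glo) on the other, scaled to a negative control siRNA, with robust z-scores and luciferase per cell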
Scale: total luciferase, z-score and total luciferase, % of control: higher = more reporter protein produced; luciferase per cell, z-score: higher = more reporter output per viable cell; viable cells, % of control: higher = more viable cells
Active means: 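An siRNA counts as active if its total luciferase robust z-score exceeds 3; genes with two or more such siRNAs out of three were retested with fresh siRNAs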
Meaning of the calls: active = raised luciferase; inactive = no rise
In all, the deposit lists about 59,000 reagents; this is a part drawn at random. Over the whole deposit, about 1,510 (2.6%) were called active. 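Calls use total luciferase alone and ignore viability, so some active siRNAs may act by altering cell number.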 Reagents against one gene are numbered here. Reagent sequences are not shown.

gene knocked down | reagent | total luciferase, z-score | total luciferase, % of control | luciferase per cell, z-score | viable cells, % of control | Call
IRGM (immunity related GTPase M) | 1 | -0.16 | 78.7 | 0.59 | 75.3 | inactive
IRGM (immunity related GTPase M) | 2 | 2.36 | 129 | 2.31 | 78.4 | inactive
IRGM (immunity related GTPase M) | 3 | -2.27 | 36.8 | -2.43 | 78 | inactive
FAM151B (family with sequence similarity 151 member B) | 1 | 0.782 | 97.4 | 0.403 | 97.9 | inactive
FAM151B (family with sequence similarity 151 member B) | 2 | 1.73 | 116 | 1.7 | 82.9 | inactive
FAM151B (family with sequence similarity 151 member B) | 3 | 0.193 | 85.7 | -0.36 | 105 | inactive
KCNQ5 (potassium voltage-gated channel subfamily Q member 5) | 1 | 0.652 | 94.8 | -0.000586 | 106 | inactive
KCNQ5 (potassium voltage-gated channel subfamily Q member 5) | 2 | 0.885 | 99.5 | 1.53 | 74.4 | inactive
KCNQ5 (potassium voltage-gated channel subfamily Q member 5) | 3 | 1.07 | 103 | 0.714 | 95.6 | inactive
ERGIC1 (endoplasmic reticulum-golgi intermediate compartment 1) | 1 | 1.26 | 107 | 1.6 | 78.4 | inactive
ERGIC1 (endoplasmic reticulum-golgi intermediate compartment 1) | 2 | 1.22 | 106 | 1.77 | 74.4 | inactive
ERGIC1 (endoplasmic reticulum-golgi intermediate compartment 1) | 3 | -0.214 | 77.6 | -0.754 | 106 | inactive
FGF16 (fibroblast growth factor 16) | 1 | -0.144 | 79 | -0.441 | 99.2 | inactive
FGF16 (fibroblast growth factor 16) | 2 | 3.01 | 142 | 2.98 | 72.2 | active
FGF16 (fibroblast growth factor 16) | 3 | -0.219 | 77.5 | 0.225 | 81.7 | inactive
C19orf53 (chromosome 19 open reading frame 53) | 1 | 0.423 | 90.3 | 0.723 | 83.4 | inactive
C19orf53 (chromosome 19 open reading frame 53) | 2 | 2.12 | 124 | 1.06 | 105 | inactive
C19orf53 (chromosome 19 open reading frame 53) | 3 | 0.353 | 88.9 | 1.13 | 73.7 | inactive
PABPC1L2B (poly(A) binding protein cytoplasmic 1 like 2B) | 1 | -0.382 | 74.3 | -0.337 | 90.7 | inactive
PABPC1L2B (poly(A) binding protein cytoplasmic 1 like 2B) | 2 | -0.692 | 68.1 | -0.79 | 93.7 | inactive
PABPC1L2B (poly(A) binding protein cytoplasmic 1 like 2B) | 3 | -0.293 | 76.1 | -0.978 | 110 | inactive
GGT7 (gamma-glutamyltransferase 7) | 1 | 0.517 | 92.2 | 0.508 | 90.1 | inactive
GGT7 (gamma-glutamyltransferase 7) | 2 | 0.0534 | 82.9 | -0.215 | 98.1 | inactive
GGT7 (gamma-glutamyltransferase 7) | 3 | 1.59 | 113 | 0.857 | 101 | inactive
ABO | 1 | -0.117 | 79.6 | -0.212 | 94 | inactive
ABO | 2 | -0.366 | 74.6 | -0.454 | 93.9 | inactive
ABO | 3 | 1.63 | 114 | 0.726 | 106 | inactive
SYCP2L (synaptonemal complex protein 2 like) | 1 | -0.347 | 75 | 1.24 | 60.4 | inactive
SYCP2L (synaptonemal complex protein 2 like) | 2 | -1.65 | 49 | -1.91 | 90.5 | inactive
SYCP2L (synaptonemal complex protein 2 like) | 3 | -0.194 | 78 | -0.449 | 98.1 | inactive
MYO15A (myosin XVA) | 1 | 2.12 | 124 | 1.57 | 91.7 | inactive
MYO15A (myosin XVA) | 2 | 0.109 | 84.1 | -0.4 | 104 | inactive
MYO15A (myosin XVA) | 3 | -0.407 | 73.8 | -0.94 | 106 | inactive
GRM5 (glutamate metabotropic receptor 5) | 1 | -0.786 | 66.2 | -1.07 | 98.2 | inactive
GRM5 (glutamate metabotropic receptor 5) | 2 | -1.56 | 50.8 | -2.13 | 99.4 | inactive
GRM5 (glutamate metabotropic receptor 5) | 3 | 0.588 | 93.6 | 0.31 | 96.4 | inactive

Sorted by “total luciferase, % of control” (ascending): some entries from above.
gene knocked down | reagent | total luciferase, z-score | total luciferase, % of control | luciferase per cell, z-score | viable cells, % of control | Call
PABPC1L2B (poly(A) binding protein cytoplasmic 1 like 2B) | 2 | -0.692 | 68.1 | -0.79 | 93.7 | inactive
PABPC1L2B (poly(A) binding protein cytoplasmic 1 like 2B) | 1 | -0.382 | 74.3 | -0.337 | 90.7 | inactive
C19orf53 (chromosome 19 open reading frame 53) | 3 | 0.353 | 88.9 | 1.13 | 73.7 | inactive

Further results follow:
gene knocked down | reagent | total luciferase, z-score | total luciferase, % of control | luciferase per cell, z-score | viable cells, % of control | Call
GUCY1A1 (guanylate cyclase 1 soluble subunit alpha 1) | 1 | -0.726 | 67.4 | -1.03 | 98.9 | inactive
GUCY1A1 (guanylate cyclase 1 soluble subunit alpha 1) | 2 | 0.784 | 97.5 | 0.501 | 95.5 | inactive
GUCY1A1 (guanylate cyclase 1 soluble subunit alpha 1) | 3 | -0.232 | 77.3 | -0.121 | 89.2 | inactive
SMYD3 (SET and MYND domain containing 3) | 1 | -2.04 | 41.4 | 0.0283 | 45.9 | inactive
SMYD3 (SET and MYND domain containing 3) | 2 | -0.129 | 79.3 | -0.572 | 103 | inactive
SMYD3 (SET and MYND domain containing 3) | 3 | -0.0428 | 81 | -0.384 | 100 | inactive
HPX-2 (retired record) | 1 | 0.204 | 86 | 0.223 | 90.6 | inactive
HPX-2 (retired record) | 2 | 1.52 | 112 | 1.41 | 86.4 | inactive
HPX-2 (retired record) | 3 | 1.52 | 112 | 1.48 | 84.9 | inactive
SCYL2 (SCY1 like pseudokinase 2) | 1 | -0.403 | 73.9 | -0.111 | 85 | inactive
SCYL2 (SCY1 like pseudokinase 2) | 2 | 0.916 | 100 | 0.669 | 93.8 | inactive
SCYL2 (SCY1 like pseudokinase 2) | 3 | -0.172 | 78.5 | -0.157 | 91.4 | inactive
FRZB (frizzled related protein) | 1 | 3.6 | 153 | 3.15 | 74.8 | active
FRZB (frizzled related protein) | 2 | -0.201 | 77.9 | 0.969 | 67.4 | inactive
FRZB (frizzled related protein) | 3 | 3.24 | 146 | 2.29 | 89.6 | active
DRAIC | 1 | 1.36 | 109 | 0.892 | 96.2 | inactive
DRAIC | 2 | -2.24 | 37.4 | -1.71 | 65.7 | inactive
DRAIC | 3 | -0.975 | 62.5 | -0.386 | 77.3 | inactive
CLEC14A (C-type lectin domain containing 14A) | 1 | -0.00449 | 81.8 | 1.1 | 68.4 | inactive
CLEC14A (C-type lectin domain containing 14A) | 2 | -0.571 | 70.5 | -0.376 | 87 | inactive
CLEC14A (C-type lectin domain containing 14A) | 3 | -0.469 | 72.6 | -0.802 | 100 | inactive
RRAGC (Ras related GTP binding C) | 1 | 0.2 | 85.9 | 0.775 | 78.2 | inactive
RRAGC (Ras related GTP binding C) | 2 | 0.314 | 88.1 | -0.361 | 108 | inactive
RRAGC (Ras related GTP binding C) | 3 | -0.933 | 63.3 | -1.08 | 94 | inactive
OAF (out at first homolog) | 1 | -0.142 | 79.1 | 0.235 | 83 | inactive
OAF (out at first homolog) | 2 | -0.248 | 77 | 0.438 | 76.6 | inactive
OAF (out at first homolog) | 3 | 0.78 | 97.4 | -0.101 | 112 | inactive
SLN (sarcolipin) | 1 | 1.25 | 107 | 1.85 | 73.3 | inactive
SLN (sarcolipin) | 2 | 1.81 | 118 | 1.71 | 84 | inactive
SLN (sarcolipin) | 3 | 0.284 | 87.5 | 0.976 | 75.6 | inactive
PIK3C2G | 1 | -0.508 | 71.8 | -0.529 | 92.2 | inactive
PIK3C2G | 2 | 0.0432 | 82.7 | 0.626 | 78.4 | inactive
PIK3C2G | 3 | -0.864 | 64.7 | -1.71 | 113 | inactive
CACNA1F (calcium voltage-gated channel subunit alpha1 F) | 1 | -0.247 | 77 | -0.405 | 95.7 | inactive
CACNA1F (calcium voltage-gated channel subunit alpha1 F) | 2 | 0.603 | 93.9 | 0.366 | 95.3 | inactive
CACNA1F (calcium voltage-gated channel subunit alpha1 F) | 3 | -1.14 | 59.2 | -1.52 | 98.7 | inactive
ANAPC13 (anaphase promoting complex subunit 13) | 1 | 1.43 | 110 | 1.39 | 85.4 | inactive
ANAPC13 (anaphase promoting complex subunit 13) | 2 | -0.158 | 78.8 | -0.675 | 105 | inactive
ANAPC13 (anaphase promoting complex subunit 13) | 3 | 2.27 | 127 | 1.73 | 90 | inactive
